For at least one compound, name, drawing or mass did not settle the structure.
Legend:
rat PC12 cell line = assay: MTT cell viability assay, cytotoxicity of soluble Aβ oligomers; format: cell-based; details: oligomers pre-incubated with different concentrations of the compound, 24 hours
Method: The cytotoxicity assay was performed with Rat PC12 cells (1.5×10^5 cells/mL) cultured in 96-well microplates (100 μL/well) and incubated overnight at 37° C. Samples with toxic oligomers from above were either dialyzed over night against PBS buffer or diluted with 9 volumes of an aqueous solution containing 33% methanol and 4% acetic acid, and incubated for 2 hours at 4° C. The samples were then centrifuged at 16,000 g for 40 minutes, the supernatant discarded and the pellet was resuspended in 5 mM NaH2PO4, 35 mM NaCl, pH 7.4. To each well we added 100 μL of 0.5 μM Aβ which formed toxic oligomers and prepared mixtures of inhibitors at various concentrations. Each experiment was repeated four times. Following incubation for 24 hours at 37° C., cell viability was evaluated using the MTT assay. Briefly, 20 μL of 5 mg/mL MTT dissolved in PBS was added to each well. […] Finally, color intensity was measured using an ELISA reader at 570 nm.
To further substantiate the inhibition induced by SY-81, it was tested whether SY-81 affects the toxicity of Aβ oligomers towards the rat PC12 cell line. Toxic oligomers were pre-incubated with different concentrations of SY-81 and toxicity was assessed using the MTT cell viability assay.

Amino acid sequences for entries named in this document (tags omitted). Residues count along the entry.
UniProt P05067, 672-713 limits assumed: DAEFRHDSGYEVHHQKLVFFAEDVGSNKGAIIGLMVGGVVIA
UniProt P05067, 672-711 limits assumed: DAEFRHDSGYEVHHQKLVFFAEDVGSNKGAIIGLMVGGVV

Aβ1-42 oligomers = target: T1, Aβ1-42 oligomers (Homo sapiens, UniProt P05067); assay: Inhibition of formation of SDS-stable Aβ oligomers (Barghorn protocol, Tris-Tricine gel); format: biochemical
T1 construct: Amyloid β-peptide(1-42) and amyloid β-peptide(1-40) trifluoroacetate salts; purchased Bachem (Bubendorf, Switzerland); host or cells: synthetic peptide

Aβ1-40 fibrils [1] = target: T2, Aβ1-40 fibrils (Homo sapiens, UniProt P05067); assay: Transmission electron microscopy of fibril morphology; format: biochemical; details: inhibitor 25 μM, Aβ1-40 5 μM, after 7 days (T=270 hrs)
T2 construct: Amyloid β-peptide(1-42) and amyloid β-peptide(1-40) trifluoroacetate salts; purchased Bachem (Bubendorf, Switzerland); host or cells: synthetic peptide

Aβ1-40 fibrils [2] = target: T2, Aβ1-40 fibrils; assay: Thioflavin T (ThT) fluorescence assay of fibril formation; format: biochemical; details: Aβ1-40 5 μM, 37° C.; even at very low concentrations such as 1.25 μM
Method: For executing the ThT florescence assay, Aβ1-40 was dissolved to a concentration of 10 μM in 10% DMSO in PBS (pH 7.4). Aβ was immediately mixed with or without different concentrations of SY-81 or SY-83 at a 1:1 ration to a final concentration of 5 μM. The samples were incubated at 37° C. and the fibrillogenesis rate was followed by thioflavin T (ThT) fluorescence assay (excitation at 450 nm, 2.5 nm slit, and emission at 480 nm, 5 nm slit), over a course of 11 days to two weeks. ThT was added to a 10-fold diluted sample and measured using a Jobin Yvon Horiba Fluoromax 3 fluorimeter.
Though there is a growing recognition that the early Aβ oligomer intermediates and not the fibrils are the most toxic amyloid forms in AD, this debate has not been completely resolved. […] This method provides quantitative information on amyloid fibrils growth. β-amyloid was allowed to form amyloid fibrils either in the presence of different concentrations of SY-83 (FIGS. 5A, C) or SY-81 (FIGS. 5B, D) or with no inhibitor (WT). The fibrillization process was followed for several days until a plateau state was reached. Fluorescence values were measured throughout.
An end point experiment was further conducted with various concentrations of SY-81 and SY-83 in order to determine IC50. An IC50 of 50 nM and 100 nM was measured for SY-81 and SY-83, respectively. […]

5XFAD mice = assay: Object recognition test in AD model mice; format: in vivo; details: 1 mg intraperitoneally every other day for 4 months; p<0.05

Structure (SMILES)	inhibition of the toxic effect of Aβ oligomers towards cultured cells (rat PC12 cell line)	inhibition of formation of Aβ oligomers (Aβ1-42 oligomers; Aβ1-42, 24 hours at 37° C., concentration dependent)	lowest ratio at which inhibition was seen (Aβ1-42: quinone compound) (Aβ1-42 oligomers; growth of ~18 kDa intermediates into ~56 kDa toxic oligomers)	fibril formation by TEM (Aβ1-40 fibrils [1])	formation of amyloid fibrils (ThT fluorescence intensity) (Aβ1-40 fibrils [2])	time exploring the novel object vs PBS-treated 5XFAD mice (5XFAD mice)
O=C1C=C(NC(Cc2c[nH]c3ccccc23)C(=O)O)C(=O)c2ccccc21 (stereo not drawn) [SY-81]	significantly inhibit	–	–	–	–	–
O=C1C(Cl)=C(NC(Cc2c[nH]c3ccccc23)C(=O)O)C(=O)c2ccccc21 (stereo not drawn) [SY-83]	–	significantly inhibited	5:1	marked inhibition in fibril formation	significantly lowered	significantly more time

Reference: patent publication US9272993B2, “Naphthoquinone derivatives useful for prevention of amyloid deposits and treatment of diseases involving amyloidogenesis” (TECHNOLOGY INNOVATION MOMENTUM FUND (ISRAEL) LIMITED …, priority 2008, dated 2016)
